PubChem BioAssay AID1259308 | NCATS – 2017
Purpose: 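Genes whose loss raises luciferase production in HEK293 cells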 (primary screen). Cells: human HEK293 embryonic kidney cells stably expressing firefly luciferase (HEK-CMV-Luc2-Hygro). Reagents: single siRNA against human genes, 0.8 pmol siRNA per well. Timing: 72 h. Measured: 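Reporter luminescence and viable-cell signal on separate replicate plates, given as percent of non-targeting control and median/MAD z-scores, plus per-cell luciferase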. Reading the numbers: total luciferase, z-score and total luciferase, % of control: higher = more reporter protein produced. Call rule: 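Active when the median/MAD z-score for overall luciferase is greater than 3; a gene was taken forward for validation with new siRNAs if at least two of its three siRNAs passed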. Calls: active = raised luciferase; inactive = no rise.
The deposit covers about 59,000 reagents; below is a part drawn at random. About 1,510 of all reagents (2.6%) were called active. 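Calls use total luciferase alone and ignore viability, so some active siRNAs may act by altering cell number.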 Reagents against one gene are numbered here. Not all columns of the deposit are shown. Reagent sequences are not shown.

ZC3H7A #1
- total luciferase, z-score: 1.5
- total luciferase, % of control: 112
- call: inactive

ZC3H7A #2
- total luciferase, z-score: 1.28
- total luciferase, % of control: 107
- call: inactive

ZC3H7A #3
- total luciferase, z-score: -0.423
- total luciferase, % of control: 73.5
- call: inactive

DNAJA2 #1
- total luciferase, z-score: 0.79
- total luciferase, % of control: 97.6
- call: inactive

DNAJA2 #2
- total luciferase, z-score: -0.829
- total luciferase, % of control: 65.4
- call: inactive

DNAJA2 #3
- total luciferase, z-score: 0.133
- total luciferase, % of control: 84.5
- call: inactive

EEF2K #1
- total luciferase, z-score: 0.555
- total luciferase, % of control: 92.9
- call: inactive

EEF2K #2
- total luciferase, z-score: -0.509
- total luciferase, % of control: 71.8
- call: inactive

EEF2K #3
- total luciferase, z-score: 0.405
- total luciferase, % of control: 89.9
- call: inactive

PPP1R13B #1
- total luciferase, z-score: -1.21
- total luciferase, % of control: 57.8
- call: inactive

PPP1R13B #2
- total luciferase, z-score: 0.00169
- total luciferase, % of control: 81.9
- call: inactive

PPP1R13B #3
- total luciferase, z-score: -0.215
- total luciferase, % of control: 77.6
- call: inactive

MICU3 #1
- total luciferase, z-score: -0.54
- total luciferase, % of control: 71.2
- call: inactive

MICU3 #2
- total luciferase, z-score: 0.526
- total luciferase, % of control: 92.3
- call: inactive

MICU3 #3
- total luciferase, z-score: -0.306
- total luciferase, % of control: 75.8
- call: inactive

PDAP1 #1
- total luciferase, z-score: 1.34
- total luciferase, % of control: 109
- call: inactive

PDAP1 #2
- total luciferase, z-score: -0.144
- total luciferase, % of control: 79
- call: inactive

PDAP1 #3
- total luciferase, z-score: -1.46
- total luciferase, % of control: 52.8
- call: inactive

ADGRA2 #1
- total luciferase, z-score: -0.636
- total luciferase, % of control: 69.2
- call: inactive

ADGRA2 #2
- total luciferase, z-score: -0.798
- total luciferase, % of control: 66
- call: inactive

ADGRA2 #3
- total luciferase, z-score: -1.25
- total luciferase, % of control: 57
- call: inactive

STK25 #1
- total luciferase, z-score: -2.05
- total luciferase, % of control: 41.2
- call: inactive

STK25 #2
- total luciferase, z-score: -1.04
- total luciferase, % of control: 61.3
- call: inactive

STK25 #3
- total luciferase, z-score: 2.1
- total luciferase, % of control: 124
- call: inactive

ZNF214 #1
- total luciferase, z-score: -0.316
- total luciferase, % of control: 75.6
- call: inactive

ZNF214 #2
- total luciferase, z-score: 0.947
- total luciferase, % of control: 101
- call: inactive

ZNF214 #3
- total luciferase, z-score: -0.595
- total luciferase, % of control: 70
- call: inactive

The list goes on, starting with the last 5 of the part before.
STK25 #2
- total luciferase, z-score: -1.04
- total luciferase, % of control: 61.3
- call: inactive

STK25 #3
- total luciferase, z-score: 2.1
- total luciferase, % of control: 124
- call: inactive

ZNF214 #1
- total luciferase, z-score: -0.316
- total luciferase, % of control: 75.6
- call: inactive

ZNF214 #2
- total luciferase, z-score: 0.947
- total luciferase, % of control: 101
- call: inactive

ZNF214 #3
- total luciferase, z-score: -0.595
- total luciferase, % of control: 70
- call: inactive

OPTN #1
- total luciferase, z-score: -0.011
- total luciferase, % of control: 81.7
- call: inactive

OPTN #2
- total luciferase, z-score: 0.126
- total luciferase, % of control: 84.4
- call: inactive

OPTN #3
- total luciferase, z-score: -0.198
- total luciferase, % of control: 78
- call: inactive

PPP1R1C #1
- total luciferase, z-score: 0.855
- total luciferase, % of control: 98.9
- call: inactive

PPP1R1C #2
- total luciferase, z-score: 0.0965
- total luciferase, % of control: 83.8
- call: inactive

PPP1R1C #3
- total luciferase, z-score: 2.09
- total luciferase, % of control: 124
- call: inactive

PRDM11 #1
- total luciferase, z-score: 0.158
- total luciferase, % of control: 85
- call: inactive

PRDM11 #2
- total luciferase, z-score: -2.25
- total luciferase, % of control: 37.1
- call: inactive

PRDM11 #3
- total luciferase, z-score: 0.446
- total luciferase, % of control: 90.8
- call: inactive

OR8B4 #1
- total luciferase, z-score: -0.943
- total luciferase, % of control: 63.1
- call: inactive

OR8B4 #2
- total luciferase, z-score: 0.144
- total luciferase, % of control: 84.7
- call: inactive

OR8B4 #3
- total luciferase, z-score: -0.137
- total luciferase, % of control: 79.2
- call: inactive

SRP9 #1
- total luciferase, z-score: 1.36
- total luciferase, % of control: 109
- call: inactive

SRP9 #2
- total luciferase, z-score: 0.878
- total luciferase, % of control: 99.4
- call: inactive

SRP9 #3
- total luciferase, z-score: 1.05
- total luciferase, % of control: 103
- call: inactive
